{
  "source": "PubChem BioAssay AID504834",
  "about": "(National Center for Advancing Translational Sciences (NCATS), 2011)",
  "note": "Among all 320,000 compounds or so, about 22,000 (6.9%) were called active. Inconclusive results, whose numbers are uncertain, are shown with a selection of clear calls. Calls follow the shape of the dose curve; as a rule, active = well fitted inhibition curve with a large enough effect; inconclusive = small, poorly fitted or top-dose-only effect, or another doubt; inactive = no such curve, though single readings can be large or run the other way. A potency beside an inconclusive call is a rough fit, not a confirmed value. Potency is read from the fitted curve at half-maximal effect.",
  "data": [
    {"experiment": "Primary qHTS for delayed death inhibitors of the malarial parasite plastid, 96 hour incubation", "settings": "P. falciparum luciferase reporter growth; series mostly up to 28.7 µM", "in_short": "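Compounds incubated with erythrocytes infected by luciferase-expressing P. falciparum (2% hematocrit, 0.05% parasitemia final) for 96 hours, 37 C in 5% CO2. Growth inhibition scored as decreased luciferase luminescence.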", "values": [
      {"smiles": "Cc1ccc(OCc2nnc(SCc3nc4ccccc4[nH]3)n2Cc2ccco2)cc1", "Potency": "active: 6.57 µM"},
      {"smiles": "OC1(c2cccs2)CN(c2ccc(Br)cc2)C2=[N+]1CCCS2", "note": "(stereo not drawn)", "Potency": "inconclusive: 13.1 µM [inhibitor, single point]"},
      {"smiles": "O=CN1CCN(CC(O)Cn2c3ccccc3c3ccccc32)CC1", "note": "(stereo not drawn)", "Potency": "inconclusive: 18.5 µM [inhibitor, single point]"},
      {"smiles": "Cc1ccccc1CNC(=O)CN(c1cccc([N+](=O)[O-])c1)S(C)(=O)=O", "Potency": "inactive"},
      {"smiles": "COc1ccc(NS(=O)(=O)c2cccc(C(=O)OCC(=O)N3CCN(c4ccc(OC)cc4)CC3)c2)cc1", "Potency": "inconclusive: 18.5 µM [inhibitor, partial curve, poor fit]"},
      {"smiles": "C[C@]12C=CC(=O)C=C1CC[C@@H]1[C@@H]2CC[C@@]2(C)[C@H]1CC[C@]2(C)O", "Potency": "inconclusive: 10.7 µM [inhibitor, partial curve]"},
      {"smiles": "CC1Cc2nc(SCC(=O)Nc3ccccc3F)n(C)c(=O)c2S1", "note": "(stereo not drawn)", "Potency": "inactive"},
      {"smiles": "NC(=O)c1ccc(-c2noc(-c3ccccc3F)n2)cc1", "Potency": "inactive"},
      {"smiles": "COc1ccc(C2N(C(=O)CN3CCOCC3)CCN2S(=O)(=O)c2ccccc2)cc1", "note": "(stereo not drawn)", "Potency": "inconclusive: 11.7 µM [inhibitor, partial curve, poor fit]"},
      {"smiles": "CC(=O)Nc1ccc(S(=O)(=O)NC2C3(C)CCC(C3)C2(C)C)cc1", "note": "(stereo not drawn)", "Potency": "inactive"},
      {"smiles": "CCCSc1nc(O)c(C(c2ccc(OC)c(O)c2)c2c(O)nc(SCCC)n(C)c2=O)c(=O)n1C", "Potency": "inactive"},
      {"smiles": "Cc1ccc(CN2[C@@H](Cc3ccccc3)C(=O)CS2(=O)=O)cc1", "Potency": "inconclusive: 18.5 µM [inhibitor, single point]"},
      {"smiles": "Oc1[nH]c2c(Cl)cc(Cl)cc2c1N=NC(=S)NCC1CCCO1", "note": "(stereo not drawn)", "Potency": "active: 6.57 µM"},
      {"smiles": "COc1cccc(CC(=O)OCC(=O)c2cc(OC)ccc2OC)c1", "Potency": "inactive"},
      {"smiles": "COc1ccc2cc(C#N)c(N3CCN(Cc4nnnn4CCC(C)C)CC3)nc2c1", "Potency": "inconclusive: 18.5 µM [inhibitor, single point]"},
      {"smiles": "CCC(=O)N1CCc2cc(-c3csc(NC(=O)c4ccco4)n3)ccc21", "Potency": "inactive"},
      {"smiles": "O=C(NNC(=O)c1ccc(F)c(S(=O)(=O)N2CCOCC2)c1)c1ccc([N+](=O)[O-])cc1", "Potency": "inactive"},
      {"smiles": "Cc1ccc(-c2nn(-c3ccccc3)cc2/C=C/C(=O)OCC(=O)NC2CC2)o1", "Potency": "inconclusive: 18.5 µM [inhibitor, single point]"},
      {"smiles": "CC(=O)c1c(C)[nH]c(C(=O)Nc2cccc(S(=O)(=O)N(C)C)c2)c1C", "Potency": "inactive"},
      {"smiles": "Cn1c(SCC(=O)N/N=C/C=C\\c2ccccc2[N+](=O)[O-])nc2ccccc21", "Potency": "inconclusive: 9.28 µM [inhibitor, single point]"},
      {"smiles": "CN1CCc2c(C#N)c(N3CCOCC3)nc(NCC3CCCO3)c2C1", "note": "(stereo not drawn)", "Potency": "inconclusive: 16.5 µM [inhibitor, partial curve, poor fit]"},
      {"smiles": "O=C(NN1C(=O)C2C(c3ccccc3)C=CC(c3ccccc3)C2C1=O)c1cccc(Br)c1", "note": "(stereo not drawn)", "Potency": "inconclusive: 18.5 µM [inhibitor, single point]"},
      {"smiles": "CC(C)c1cc(Nc2cccc(O)c2)cc(C(C)C)c1O", "Potency": "active: 11.7 µM"},
      {"smiles": "O=S(=O)(c1cccs1)N1CN(C2CCCC2)c2nc3ccccc3nc21", "Potency": "inconclusive: 10.4 µM [inhibitor, single point]"},
      {"smiles": "CC1Nc2ncnc(N3CCc4ccccc4C3)c2N(Cc2ccc(Br)cc2)C1=O", "note": "(stereo not drawn)", "Potency": "active: 6.57 µM"},
      {"smiles": "CCO[C@H]1OC(C(=O)Nc2ccccc2)=C[C@@H](c2ccc(Br)cc2)[C@@H]1CCCO", "Potency": "inconclusive: 11.7 µM [inhibitor, single point]"},
      {"smiles": "O=[N+]([O-])c1ccc(Sc2nccn2Cc2ccccc2)c([N+](=O)[O-])c1", "Potency": "inconclusive: 2.62 µM [inhibitor, single point]"},
      {"smiles": "COCCn1c(C(C)C)nc2sc3ccccc3c(=O)c2c1=O", "Potency": "inconclusive: 0.0657 µM [inhibitor, full curve, poor fit]"},
      {"smiles": "O=C(NC(O)C(=O)c1ccccc1)c1ccccn1", "note": "(stereo not drawn)", "Potency": "inactive"},
      {"smiles": "CCCCC1CCC(C(=O)N(CCCC)c2c(N)n(CCCC)c(=O)[nH]c2=O)CC1", "note": "(stereo not drawn)", "Potency": "inconclusive: 10.4 µM [inhibitor, single point]"},
      {"smiles": "Cc1cc(C)nc(SCc2c(F)cccc2Cl)n1", "Potency": "inconclusive: 16.5 µM [inhibitor, single point]"},
      {"smiles": "Cc1cccc(CSc2nc3c(cc2C#N)CN(C)CC3)c1", "Potency": "active: 7.38 µM"},
      {"smiles": "COc1ccc(/C=C/C(=O)N2CCCc3ccccc32)c(OC)c1", "Potency": "inconclusive: 16.5 µM [inhibitor, single point]"},
      {"smiles": "C/C(=N\\NC(=S)NCc1ccccc1)c1ccc(C#N)cc1", "Potency": "inactive"},
      {"smiles": "COc1ccc(NC(=O)CC2Oc3ccccc3NC2=O)c(OC)c1", "note": "(stereo not drawn)", "Potency": "inactive"},
      {"smiles": "COc1cccc(-c2cc(C(=O)NCc3ccco3)c3ccccc3n2)c1", "Potency": "inconclusive: 18.5 µM [inhibitor, single point]"},
      {"smiles": "COc1cc(O)c(C(CCN2CCCC(C)C2)c2ccc(N(C)C)cc2)c(OC)c1", "note": "(stereo not drawn)", "Potency": "active: 0.465 µM"},
      {"smiles": "CC(=O)c1ccc(N2CCN(S(=O)(=O)c3ccc4c(c3)NC(=O)CO4)CC2)cc1", "Potency": "inconclusive: 11.7 µM [inhibitor, single point]"},
      {"smiles": "COC(=O)N/N=C/c1ccc(-c2ccc(C)c(Cl)c2)o1", "Potency": "inconclusive: 4.15 µM [inhibitor, single point]"},
      {"smiles": "Nc1nc(-c2ccco2)cs1", "Potency": "inconclusive: 0.465 µM [inhibitor, partial curve, poor fit]"},
      {"smiles": "CCc1ccc(OCC(=O)c2c(O)c3ccccc3oc2=O)cc1", "Potency": "inconclusive: 13.1 µM [inhibitor, single point]"},
      {"smiles": "O=C(O)CCCN1C(=O)/C(=C\\c2ccco2)SC1=S", "Potency": "active: 2.94 µM"},
      {"smiles": "O=C1CN=C(Nc2ccccc2Cl)N1c1ccccc1", "Potency": "inconclusive: 6.57 µM [inhibitor, partial curve, poor fit]"},
      {"smiles": "COc1ccc(NS(=O)(=O)c2ccc3oc(SC(C)C(N)=O)nc3c2)cc1", "note": "(stereo not drawn)", "Potency": "active: 4.65 µM"},
      {"smiles": "FC(F)(F)c1ccc2c3n(nc2c1)CCN=C3c1ccc(Cl)cc1", "Potency": "inconclusive: 18.5 µM [inhibitor, single point]"},
      {"smiles": "CCc1cc2c(=O)oc(-c3ccc(Br)cc3)nc2s1", "Potency": "inconclusive: 18.5 µM [inhibitor, single point]"},
      {"smiles": "CCn1cc(/C=C(\\NC(=O)c2ccc(OC)c(OC)c2)C(=O)NCCCN2CCOCC2)c2ccccc21", "Potency": "inconclusive: 18.5 µM [inhibitor, single point]"},
      {"smiles": "Cc1ccc(-c2cc3nc(-c4ccccc4)cc(N4CCOCC4)n3n2)cc1", "Potency": "inactive"},
      {"smiles": "CCOCCCN(C(=O)CNC(=O)c1ccco1)C(C(=O)NC1CCCC1)c1ccccc1C", "note": "(stereo not drawn)", "Potency": "inconclusive: 10.4 µM [inhibitor, partial curve, poor fit]"},
      {"smiles": "CCOc1ncccc1C(=O)OCc1nnc(-c2ccccc2)o1", "Potency": "inconclusive: 0.828 µM [inhibitor, full curve, poor fit]"},
      {"smiles": "COc1ccc2c(c1)O[C@@H](c1cccc(C(F)(F)F)c1)[C@H](OC(=O)N[C@H]1CCCc3ccccc31)C2=O", "Potency": "inconclusive: 18.5 µM [inhibitor, single point]"},
      {"smiles": "CC(Cc1c[nH]c2ccccc12)NC(N)=O", "note": "(stereo not drawn)", "Potency": "inconclusive: 3.7 µM [inhibitor, partial curve, poor fit]"},
      {"smiles": "CC(=O)Nc1c(C)cc(OCC(=O)O)cc1C", "Potency": "inactive"},
      {"smiles": "Fc1ccccc1/C=N/Nc1nc(-c2ccccn2)nc2ccccc12", "Potency": "inconclusive: 1.04 µM [inhibitor, partial curve, poor fit]"},
      {"smiles": "COc1ccccc1CN1CCN(Cc2nc(-c3cccs3)no2)CC1", "Potency": "active: 5.86 µM"},
      {"smiles": "Cn1cc(C(=O)N/N=C/C(Br)=C/c2ccccc2)ccc1=O", "Potency": "inconclusive: 16.5 µM [inhibitor, partial curve, poor fit]"},
      {"smiles": "Cc1cc(C)cc(N(CCC#N)C(=O)COC(=O)C2CCN(c3ccc(C(F)(F)F)cn3)CC2)c1", "Potency": "inconclusive: 18.5 µM [inhibitor, single point]"},
      {"smiles": "CCOc1ccc(NC(=S)N2CCN(c3ccc(N4CCOCC4)nn3)CC2)cc1", "Potency": "inactive"},
      {"smiles": "Cc1cc(C(=O)Nc2ccccc2C(=O)O)ccc1NC(=O)COc1cccc(C)c1C", "Potency": "inconclusive: 11.7 µM [inhibitor, single point]"},
      {"smiles": "Cc1cc(=O)n2c3ccccc3n(CC(O)CN3CCN(CCO)CC3)c2c1C#N", "note": "(stereo not drawn)", "Potency": "inconclusive: 4.15 µM [inhibitor, partial curve, poor fit]"},
      {"smiles": "COc1ccc(C(=O)N2CCN(c3ccccn3)CC2)cc1[N+](=O)[O-]", "Potency": "inconclusive: 9.28 µM [inhibitor, partial curve, poor fit]"},
      {"smiles": "O=C(COC(=O)CCS(=O)(=O)c1ccccc1)Nc1ccc(N2CCCCC2)cc1", "Potency": "inactive"},
      {"smiles": "COc1ccc(C2=NN(C(=O)CSc3nc4ccccc4s3)C(c3ccc(F)cc3)C2)cc1", "note": "(stereo not drawn)", "Potency": "inconclusive: 18.5 µM [inhibitor, single point]"},
      {"smiles": "C/C(=N\\N1C(=O)c2ccccc2NC1c1ccccc1)c1ccccc1O", "note": "(stereo not drawn)", "Potency": "inactive"},
      {"smiles": "COc1ccc(NS(=O)(=O)N2CCOCC2)cc1", "Potency": "inconclusive: 18.5 µM [inhibitor, single point]"},
      {"smiles": "Cc1cc(-c2nn(-c3ccccc3F)cc2CN2CCN(c3ccncc3)CC2)c(C)s1", "Potency": "inconclusive: 16.5 µM [inhibitor, single point]"},
      {"smiles": "O=C(NCC1CCCO1)c1cc(C(=O)C2CCCCC2)c[nH]1", "note": "(stereo not drawn)", "Potency": "inconclusive: 7.38 µM [inhibitor, partial curve, poor fit]"},
      {"smiles": "Cc1cccc(NC(=S)N2CCN(S(=O)(=O)c3cccc(F)c3)CC2)c1", "Potency": "inconclusive: 10.4 µM [inhibitor, partial curve, poor fit]"}
    ]}
  ]
}
